Measurements published in article PMC6447540.
Results are given in words; binding and its absence hold for the method and conditions named. In cells and extracts the contact can be indirect. Some entries that bind do so weakly or less than the wild type.

By UniProt entry, the sequences of proteins in these tests, tags left out.
UniProt Q9GZV5: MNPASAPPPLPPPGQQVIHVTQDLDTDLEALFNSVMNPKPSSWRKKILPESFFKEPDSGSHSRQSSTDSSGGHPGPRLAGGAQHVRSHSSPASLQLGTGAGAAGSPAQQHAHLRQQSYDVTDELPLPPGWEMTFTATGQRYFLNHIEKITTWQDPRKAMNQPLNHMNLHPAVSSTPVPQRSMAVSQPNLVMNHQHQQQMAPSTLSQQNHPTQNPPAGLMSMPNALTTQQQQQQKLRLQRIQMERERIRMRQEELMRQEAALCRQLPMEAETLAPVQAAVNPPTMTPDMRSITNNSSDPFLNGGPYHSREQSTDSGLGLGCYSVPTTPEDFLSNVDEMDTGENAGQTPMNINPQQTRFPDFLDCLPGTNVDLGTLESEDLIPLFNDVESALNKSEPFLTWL
UniProt P31749: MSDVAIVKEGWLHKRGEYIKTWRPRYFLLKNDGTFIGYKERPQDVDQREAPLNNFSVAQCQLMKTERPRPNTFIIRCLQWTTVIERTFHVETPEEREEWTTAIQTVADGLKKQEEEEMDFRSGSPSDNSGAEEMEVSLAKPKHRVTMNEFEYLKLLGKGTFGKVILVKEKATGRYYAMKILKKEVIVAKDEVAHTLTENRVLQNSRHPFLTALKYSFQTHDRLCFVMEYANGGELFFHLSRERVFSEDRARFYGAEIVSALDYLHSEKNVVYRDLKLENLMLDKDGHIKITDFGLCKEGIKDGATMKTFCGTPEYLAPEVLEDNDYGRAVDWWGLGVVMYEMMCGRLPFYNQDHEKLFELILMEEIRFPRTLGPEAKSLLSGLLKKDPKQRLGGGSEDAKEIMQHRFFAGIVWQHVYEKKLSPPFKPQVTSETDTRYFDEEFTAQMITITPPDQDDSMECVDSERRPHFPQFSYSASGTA

Columns and labels:
Flag-TAZ = Flag-TAZ (UniProt Q9GZV5); experiment: co-IP; Flag-IP (anti-Flag agarose beads, 3-4 h at 4 °C) from 1000 μg lysate of HEK293 cells co-transfected with the indicated constructs; washed five times with NETN buffer; immunoblot (Fig. 1a, 1e)
Biotin-Akt1-WT peptide = molecular target: T1, Biotin-Akt1-WT peptide; experiment: pull-down; biotin-labeled Akt1 peptides (2 μg) incubated with 1 mg whole cell lysate in 500 μl for 4 h at 4 °C, Streptavidin agarose beads 1 h, washed four times with NETN buffer; western blot (Fig. 1f); only the target purified
T1 sequence (peptide, biotin on the N-terminus; free C-terminus): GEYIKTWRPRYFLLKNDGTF

HA-Akt1 (from UniProt P31749 1-480)
binding (Flag-TAZ): no binding

B1: SAV1 (construct not stated) (protein, UniProt Q9H4B6 1-383)
chain: MLSRKKTKNEVSKPAEVQGKYVKKETSPLLRNLMPSFIRHGPTIPRRTDICLPDSSPNAFSTSGDVVSRNQSFLRTPIQRTPHEIMRRESNRLSAPSYLARSLADVPREYGSSQSFVTEVSFAVENGDSGSRYYYSDNFFDGQRKRPLGDRAHEDYRYYEYNHDLFQRMPQNQGRHASGIGRVAATSLGNLTNHGSEDLPLPPGWSVDWTMRGRKYYIDHNTNTTHWSHPLEREGLPPGWERVESSEFGTYYVDHTNKKAQYRHPCAPSVPRYDQPPPVTYQPQQTERNQSLLVPANPYHTAEIPDWLQVYARAPVKYDHILKWELFQLADLDTYQGMLKLLFMKELEQIVKMYEAYRQALLTELENRKQRQQWYAQQHGKNF
binding (Biotin-Akt1-WT peptide): binds
